Data from publication PMC9617928.
Read-outs that look alike come from different tables or passages of the source. Results are given in words; binding and its absence hold for the method and conditions named. Binding seen in cells or lysates may run through a third protein. Some entries that bind do so weakly or less than the wild type. For some assays here: Tags and fused reporters may be left off the sequences shown. One block for each molecule: values may come before it.

Sequences of proteins named here, by UniProt entry; tags and fusion partners are left off.
UniProt P31749: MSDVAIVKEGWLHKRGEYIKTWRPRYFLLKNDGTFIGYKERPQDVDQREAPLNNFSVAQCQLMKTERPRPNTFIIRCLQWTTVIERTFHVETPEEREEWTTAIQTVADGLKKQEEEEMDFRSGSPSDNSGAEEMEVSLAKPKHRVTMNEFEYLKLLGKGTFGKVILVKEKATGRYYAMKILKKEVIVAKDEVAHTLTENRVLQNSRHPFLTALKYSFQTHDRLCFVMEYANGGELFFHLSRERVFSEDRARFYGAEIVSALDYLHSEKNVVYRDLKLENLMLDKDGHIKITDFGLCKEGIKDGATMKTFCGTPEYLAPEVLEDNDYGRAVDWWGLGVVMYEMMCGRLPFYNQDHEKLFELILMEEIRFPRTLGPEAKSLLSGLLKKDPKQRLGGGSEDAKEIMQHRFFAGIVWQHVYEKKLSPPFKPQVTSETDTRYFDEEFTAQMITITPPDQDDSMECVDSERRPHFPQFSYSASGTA
UniProt P31751: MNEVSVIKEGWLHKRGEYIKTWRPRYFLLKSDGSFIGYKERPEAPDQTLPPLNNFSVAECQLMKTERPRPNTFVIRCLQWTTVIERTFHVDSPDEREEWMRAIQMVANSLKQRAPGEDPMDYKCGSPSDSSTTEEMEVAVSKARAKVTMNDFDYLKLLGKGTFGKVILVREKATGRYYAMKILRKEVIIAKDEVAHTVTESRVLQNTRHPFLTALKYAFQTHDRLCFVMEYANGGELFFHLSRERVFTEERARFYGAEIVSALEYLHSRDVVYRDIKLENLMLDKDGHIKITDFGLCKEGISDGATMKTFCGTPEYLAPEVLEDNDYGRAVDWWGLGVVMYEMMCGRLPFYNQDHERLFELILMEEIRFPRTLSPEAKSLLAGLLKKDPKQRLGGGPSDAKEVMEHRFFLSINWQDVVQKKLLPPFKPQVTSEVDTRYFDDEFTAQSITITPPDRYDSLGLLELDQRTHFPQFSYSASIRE
UniProt Q9Y243: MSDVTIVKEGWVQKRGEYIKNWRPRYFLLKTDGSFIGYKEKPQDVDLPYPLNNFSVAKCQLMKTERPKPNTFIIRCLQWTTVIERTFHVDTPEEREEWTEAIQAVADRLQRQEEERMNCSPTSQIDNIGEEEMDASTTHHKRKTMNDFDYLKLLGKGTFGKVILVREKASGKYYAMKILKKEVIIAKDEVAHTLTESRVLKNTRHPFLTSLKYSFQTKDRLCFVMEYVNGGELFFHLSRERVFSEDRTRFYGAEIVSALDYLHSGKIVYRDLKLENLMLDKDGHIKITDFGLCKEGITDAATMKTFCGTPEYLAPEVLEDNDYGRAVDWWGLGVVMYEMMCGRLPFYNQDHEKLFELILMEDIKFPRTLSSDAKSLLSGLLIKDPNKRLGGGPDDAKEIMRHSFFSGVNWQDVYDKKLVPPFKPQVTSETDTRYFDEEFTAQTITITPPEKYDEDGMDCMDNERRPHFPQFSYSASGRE
UniProt Q15046: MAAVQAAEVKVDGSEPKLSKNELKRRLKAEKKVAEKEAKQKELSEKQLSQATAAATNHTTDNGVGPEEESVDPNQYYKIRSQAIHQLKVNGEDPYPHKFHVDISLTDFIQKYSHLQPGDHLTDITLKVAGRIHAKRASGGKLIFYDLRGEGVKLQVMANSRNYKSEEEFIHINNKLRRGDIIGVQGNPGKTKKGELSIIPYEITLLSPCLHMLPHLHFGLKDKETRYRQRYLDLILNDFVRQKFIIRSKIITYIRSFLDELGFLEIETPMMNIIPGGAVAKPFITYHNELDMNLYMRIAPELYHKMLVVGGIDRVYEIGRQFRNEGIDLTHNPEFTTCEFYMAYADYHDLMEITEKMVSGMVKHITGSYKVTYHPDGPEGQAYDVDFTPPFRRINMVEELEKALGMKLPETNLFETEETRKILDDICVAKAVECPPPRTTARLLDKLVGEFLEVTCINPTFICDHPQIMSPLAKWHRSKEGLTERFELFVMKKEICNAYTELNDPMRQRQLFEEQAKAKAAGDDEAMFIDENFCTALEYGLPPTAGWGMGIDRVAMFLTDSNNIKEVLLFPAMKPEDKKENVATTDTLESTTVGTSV

Tests used:
GST-AKT1 = GST-AKT1 (UniProt P31749); test: pull-down; 293T cells cotransfected with GST-AKT1 and EPRS1-FLAG; Glutathione precipitation, immunoblot with anti-FLAG
Strep-AKT1 [1] = target: Strep-AKT1 (UniProt P31749); test: pull-down; 293T cells cotransfected with a Strep-tagged and an HA- or FLAG-tagged protein; Strep precipitation (Strep-Tactin beads), immunoblot with anti-HA or anti-FLAG
Strep-AKT2 = Strep-AKT2 (UniProt P31751); test: as above
Strep-AKT3 = Strep-AKT3 (UniProt Q9Y243); test: as above
[2] = target: Strep-EPRS1 (glutamyl-prolyl-tRNA synthetase 1, Strep-tagged) (human) (UniProt P07814); test: as above
[3] = target: EPRS1, endogenous in U937 cells (human (endogenous in U937)) (UniProt P07814); test: co-IP; endogenous IP with anti-EPRS1 from U937 lysates, blots with anti-MARS1, anti-AIMP3, anti-KARS1; cells treated with LPS (100 ng/ml) for various times, IFNγ (100 ng/ml) as positive control
[4] = target: AKT1-FLAG, full-length (aa 1-481) (UniProt P31749); test: co-IP; lysates of 293T cells expressing Strep-EPRS1 and AKT1-FLAG proteins; anti-FLAG immunoprecipitation, immunoblot with anti-Strep
Strep-AKT1 [5] = target: Strep-AKT1 (UniProt P31749); test: pull-down; 293T cells cotransfected with a Strep-tagged and an HA- or FLAG-tagged protein; Strep precipitation (Strep-Tactin beads), immunoblot with anti-HA or anti-FLAG; remark: listed apart in the source
[6] = target: T1, EPRS1, endogenous in U937 cells (human (endogenous in U937)), P07814; test: co-IP; endogenous IP with anti-EPRS1 from U937 lysates, blots with anti-MARS1, anti-AIMP3, anti-KARS1; cells treated with LPS (100 ng/ml) for various times, IFNγ (100 ng/ml) as positive control; settings: remark: other sources report otherwise
T1 chain: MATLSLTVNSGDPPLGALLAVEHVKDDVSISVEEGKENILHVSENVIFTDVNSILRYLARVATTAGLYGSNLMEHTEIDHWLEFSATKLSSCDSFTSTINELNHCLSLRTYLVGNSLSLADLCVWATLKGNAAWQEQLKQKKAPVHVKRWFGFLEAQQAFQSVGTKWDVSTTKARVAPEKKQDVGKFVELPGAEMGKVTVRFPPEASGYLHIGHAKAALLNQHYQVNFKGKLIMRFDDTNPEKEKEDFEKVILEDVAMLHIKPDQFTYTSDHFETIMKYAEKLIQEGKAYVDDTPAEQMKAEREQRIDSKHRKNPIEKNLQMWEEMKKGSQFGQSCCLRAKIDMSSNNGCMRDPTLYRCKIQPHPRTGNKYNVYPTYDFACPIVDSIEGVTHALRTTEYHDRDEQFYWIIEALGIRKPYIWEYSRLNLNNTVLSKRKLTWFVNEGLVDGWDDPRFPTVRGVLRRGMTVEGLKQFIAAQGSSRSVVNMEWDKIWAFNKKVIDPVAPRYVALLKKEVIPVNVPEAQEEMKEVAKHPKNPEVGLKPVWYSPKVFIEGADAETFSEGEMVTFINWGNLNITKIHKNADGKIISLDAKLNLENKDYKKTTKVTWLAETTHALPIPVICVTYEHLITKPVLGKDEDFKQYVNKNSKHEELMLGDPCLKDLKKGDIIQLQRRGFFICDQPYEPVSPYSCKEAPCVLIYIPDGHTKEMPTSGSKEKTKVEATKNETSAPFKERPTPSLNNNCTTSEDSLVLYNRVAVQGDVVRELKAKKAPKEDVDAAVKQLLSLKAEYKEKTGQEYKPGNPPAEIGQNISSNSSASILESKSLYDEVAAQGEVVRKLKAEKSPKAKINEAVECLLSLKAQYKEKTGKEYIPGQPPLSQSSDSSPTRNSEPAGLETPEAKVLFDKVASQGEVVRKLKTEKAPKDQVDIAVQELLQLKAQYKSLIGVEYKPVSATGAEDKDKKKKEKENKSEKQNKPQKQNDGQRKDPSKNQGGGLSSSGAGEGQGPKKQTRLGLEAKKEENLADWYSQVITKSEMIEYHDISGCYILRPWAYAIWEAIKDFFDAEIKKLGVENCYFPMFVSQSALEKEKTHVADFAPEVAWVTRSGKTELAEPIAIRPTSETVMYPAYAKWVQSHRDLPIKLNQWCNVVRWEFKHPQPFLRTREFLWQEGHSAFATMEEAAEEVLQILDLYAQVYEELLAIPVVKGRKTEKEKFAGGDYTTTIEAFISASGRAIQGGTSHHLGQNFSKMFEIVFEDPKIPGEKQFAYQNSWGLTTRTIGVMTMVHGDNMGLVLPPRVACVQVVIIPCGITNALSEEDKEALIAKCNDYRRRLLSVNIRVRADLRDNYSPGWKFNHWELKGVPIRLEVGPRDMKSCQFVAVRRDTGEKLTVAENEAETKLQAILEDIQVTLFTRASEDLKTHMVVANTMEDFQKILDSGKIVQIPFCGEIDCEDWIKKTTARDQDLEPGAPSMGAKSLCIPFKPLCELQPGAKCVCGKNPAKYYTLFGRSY

Molecule: EPRS1-FLAG, full-length (aa 1-1512) (from UniProt P07814 1-1512) (enzyme)
binding (GST-AKT1): binds
binding (Strep-AKT1 [1]): binds
binding (Strep-AKT2): binds
binding (Strep-AKT3): binds

Molecule: HA-AKT1 (from UniProt P31749 1-480) (enzyme)
binding [2]: binds

B3: FLAG-tagged EPRS1 EARS1 domain (aa 197-682) (domain or fragment, UniProt P07814 197-682)
chain: KVTVRFPPEASGYLHIGHAKAALLNQHYQVNFKGKLIMRFDDTNPEKEKEDFEKVILEDVAMLHIKPDQFTYTSDHFETIMKYAEKLIQEGKAYVDDTPAEQMKAEREQRIDSKHRKNPIEKNLQMWEEMKKGSQFGQSCCLRAKIDMSSNNGCMRDPTLYRCKIQPHPRTGNKYNVYPTYDFACPIVDSIEGVTHALRTTEYHDRDEQFYWIIEALGIRKPYIWEYSRLNLNNTVLSKRKLTWFVNEGLVDGWDDPRFPTVRGVLRRGMTVEGLKQFIAAQGSSRSVVNMEWDKIWAFNKKVIDPVAPRYVALLKKEVIPVNVPEAQEEMKEVAKHPKNPEVGLKPVWYSPKVFIEGADAETFSEGEMVTFINWGNLNITKIHKNADGKIISLDAKLNLENKDYKKTTKVTWLAETTHALPIPVICVTYEHLITKPVLGKDEDFKQYVNKNSKHEELMLGDPCLKDLKKGDIIQLQRRGFFICDQ
binding (Strep-AKT1 [5]): binds

B4: AIMP3, endogenous in U937 cells (protein, UniProt O43324 1-174)
chain: MAAAAELSLLEKSLGLSKGNKYSAQGERQIPVLQTNNGPSLTGLTTIAAHLVKQANKEYLLGSTAEEKAIVQQWLEYRVTQVDGHSSKNDIHTLLKDLNSYLEDKVYLTGYNFTLADILLYYGLHRFIVDLTVQEKEKYLNVSRWFCHIQHYPGIRQHLSSVVFIKNRLYTNSH
binding [3]: binds

The remaining lines, values ahead:

binding [3]: binds
Molecule: KARS1, endogenous in U937 cells (from UniProt Q15046 1-597) (enzyme)

binding [4]: binds
Molecule: Strep-EPRS1 (glutamyl-prolyl-tRNA synthetase 1, Strep-tagged) (from UniProt P07814 1-1512) (enzyme)

binding (Strep-AKT1 [5]): binds
B1: FLAG-tagged EPRS1 PARS1 domain (aa 1024-1512) (domain or fragment, UniProt P07814 1024-1512)
chain: LADWYSQVITKSEMIEYHDISGCYILRPWAYAIWEAIKDFFDAEIKKLGVENCYFPMFVSQSALEKEKTHVADFAPEVAWVTRSGKTELAEPIAIRPTSETVMYPAYAKWVQSHRDLPIKLNQWCNVVRWEFKHPQPFLRTREFLWQEGHSAFATMEEAAEEVLQILDLYAQVYEELLAIPVVKGRKTEKEKFAGGDYTTTIEAFISASGRAIQGGTSHHLGQNFSKMFEIVFEDPKIPGEKQFAYQNSWGLTTRTIGVMTMVHGDNMGLVLPPRVACVQVVIIPCGITNALSEEDKEALIAKCNDYRRRLLSVNIRVRADLRDNYSPGWKFNHWELKGVPIRLEVGPRDMKSCQFVAVRRDTGEKLTVAENEAETKLQAILEDIQVTLFTRASEDLKTHMVVANTMEDFQKILDSGKIVQIPFCGEIDCEDWIKKTTARDQDLEPGAPSMGAKSLCIPFKPLCELQPGAKCVCGKNPAKYYTLFGRSY

binding [6]: binds
B2: MARS1, endogenous in U937 cells, P56192 1-900 (enzyme)
chain: MRLFVSDGVPGCLPVLAAAGRARGRAEVLISTVGPEDCVVPFLTRPKVPVLQLDSGNYLFSTSAICRYFFLLSGWEQDDLTNQWLEWEATELQPALSAALYYLVVQGKKGEDVLGSVRRALTHIDHSLSRQNCPFLAGETESLADIVLWGALYPLLQDPAYLPEELSALHSWFQTLSTQEPCQRAAETVLKQQGVLALRPYLQKQPQPSPAEGRAVTNEPEEEELATLSEEEIAMAVTAWEKGLESLPPLRPQQNPVLPVAGERNVLITSALPYVNNVPHLGNIIGCVLSADVFARYSRLRQWNTLYLCGTDEYGTATETKALEEGLTPQEICDKYHIIHADIYRWFNISFDIFGRTTTPQQTKITQDIFQQLLKRGFVLQDTVEQLRCEHCARFLADRFVEGVCPFCGYEEARGDQCDKCGKLINAVELKKPQCKVCRSCPVVQSSQHLFLDLPKLEKRLEEWLGRTLPGSDWTPNAQFITRSWLRDGLKPRCITRDLKWGTPVPLEGFEDKVFYVWFDATIGYLSITANYTDQWERWWKNPEQVDLYQFMAKDNVPFHSLVFPCSALGAEDNYTLVSHLIATEYLNYEDGKFSKSRGVGVFGDMAQDTGIPADIWRFYLLYIRPEGQDSAFSWTDLLLKNNSELLNNLGNFINRAGMFVSKFFGGYVPEMVLTPDDQRLLAHVTLELQHYHQLLEKVRIRDALRSILTISRHGNQYIQVNEPWKRIKGSEADRQRAGTVTGLAVNIAALLSVMLQPYMPTVSATIQAQLQLPPPACSILLTNFLCTLPAGHQIGTVSPLFQKLENDQIESLRQRFGGGQAKTSPKPAVVETVTTAKPQQIQALMDEVTKQGNIVRELKAQKADKNEVAAEVAKLLDLKKQLAVAEGKPPEAPKGKKKK
